# PubChem BioAssay AID652272 – Drosophila RNAi Screening Center – 2013
# Assay: 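Finding fly genes that regulate Hedgehog signal transduction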 (primary screen)
# Cells: Drosophila clone 8 (Cl8) cells
# Reagent: long dsRNA against Drosophila genes
# Measured: 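Firefly light from a Hedgehog-responsive ptc promoter reporter and Renilla reference light, both read on a plate reader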
# Scale: firefly Hh reporter signal: higher = more ptc reporter light; Renilla reference signal: higher = more Renilla control light
# Rule for the call: 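Called a hit if the two-replicate mean z-score lies below -2 or above +3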
# Calls: active = hit: reporter lowered or raised; inactive = not a hit
# In all, the deposit lists about 21,000 reagents; below is a random part of those with a known target gene and a result. Of all reagents, 503 (2.4%) are marked active. 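Raw plate light values, not normalised; calls rest on replicate z-scores that were not deposited; hits include reporter decreases as well as increases.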 Unmarked entries are inactive. A plus sign joins genes that one reagent is predicted to hit. Not stated in the record: the amount of reagent, the time to read-out.
Target gene,DRSC id,"firefly Hh reporter signal, replicate 1","firefly Hh reporter signal, replicate 2","firefly Hh reporter signal, replicate 3","Renilla reference signal, replicate 1","Renilla reference signal, replicate 2"
CG3500,DRSC04379,71629,39689,,1570,4803
Tango14,DRSC00667,1.31e5,96810,,3115,2680
FBXO11,DRSC16497,1.04e5,74881,,4496,2373
CG17780,DRSC15265,5.28e5,89680,,27325,3227
sad,DRSC16630,91770,1.36e5,,3429,3530
Hpf1,DRSC12202,1.28e5,89697,,4811,3888
CG7840,DRSC03075,1.13e5,1.24e5,,4308,4679
CG33704,DRSC03838,1.09e5,2.30e5,,3059,11285
mthl3,DRSC06997,1.00e5,76433,,4989,3508
CG30031 + deltaTry + gammaTry,DRSC07622,1.16e5,96121,,2556,5574
Wnk,DRSC11813,51243,30418,,1755,1157
CG30287,DRSC03875,98320,1.99e5,,2768,9399
CG42715 (retired record),DRSC05499,74104,2.18e5,,2362,10992
CG15909,DRSC04977,76573,54886,,2392,2787
Chs2,DRSC11830,70896,1.01e5,,2518,2501
lncRNA:CR43372,DRSC15041,7.91e5,1.50e5,,46106,2710
Rich,DRSC11607,1.31e5,88630,,4848,3476
CG12057,DRSC17797,1.16e5,2.22e5,,3608,9104
nompB,DRSC03701,75209,60131,,1724,5003
nompB,DRSC03731,1.18e5,1.06e5,,2978,9307
slp2,DRSC00836,1.72e5,55101,,4374,5852
sna,DRSC03613,88605,62770,,2524,4864
CG12783,DRSC14538,76338,1.06e5,,2410,2792
CG43182,DRSC17668,4.81e5,1.65e5,,25042,3264
CG32026,DRSC08950,1.24e5,2.13e5,,3538,8356
Mys45A,DRSC07067,70530,39563,,3382,1780
CG17784,DRSC15268,5.56e5,1.16e5,,27907,4148

Looked up above.
For “firefly Hh reporter signal, replicate 1”, sad [DRSC16630] is entered as 91770
Under “firefly Hh reporter signal, replicate 1”, CG17780 [DRSC15265] is entered as 5.28e5
CG17784 [DRSC15268], Renilla reference signal, replicate 1 = 27907
For “Renilla reference signal, replicate 2”, slp2 [DRSC00836] shows 5852
For “firefly Hh reporter signal, replicate 2”, nompB [DRSC03701] shows 60131
Value of CG30287 [DRSC03875] under “firefly Hh reporter signal, replicate 1”: 98320

The list goes on.
Target gene,DRSC id,"firefly Hh reporter signal, replicate 1","firefly Hh reporter signal, replicate 2","firefly Hh reporter signal, replicate 3","Renilla reference signal, replicate 1","Renilla reference signal, replicate 2"
Rbp9,DRSC00416,92883,71380,,1579,6650
Rbp9,DRSC00779,53821,38007,,3003,1979
pum,DRSC12722,2.59e5,,,5250,
pum,DRSC12726,3.99e5,,,7292,
pum,DRSC17037,86631,5.92e5,1.41e5,3715,3924
pum,DRSC17038,1.04e5,1.54e5,,3929,4406
CG33125,DRSC00145,5.22e5,2.31e5,,31232,10119
Amacr,DRSC03198,1.25e5,89030,,4466,3297
CG7191,DRSC03022,87905,51016,,1904,4453
CG6276,DRSC16007,82644,60928,,3105,2880
CG43181,DRSC17559,3.92e5,1.33e5,,20237,2710
CG6225,DRSC15996,63061,1.19e5,,2230,3353
Cyp9h1,DRSC07391,77248,45176,,1901,3185
CG11882,DRSC14425,84309,1.15e5,,2090,2683
CG13654,DRSC14654,4.96e5,79127,,26756,6160
Nle,DRSC00763,1.36e5,1.12e5,,3158,2600
Sf3b1,DRSC00535,45056 (active),34556,,1453,2208
veli,DRSC16276,6.85e5,95857,,36118,3514
CG6195,DRSC15989,5.79e5,1.13e5,,28853,3024
CG5910,DRSC11786,61696,81497,,2166,2368
CG13747,DRSC06418,76368,58979,,2122,4918
Socs44A,DRSC06828,1.06e5,61666,,2883,5689
CycK,DRSC03714,1.17e5,92784,,4336,3731
CG9525,DRSC03249,94395,44960,,2535,5203
faf,DRSC16942,81072,2.22e5,,3084,9128
LysP,DRSC08676,48170,39968,,2006,3136
uex,DRSC20784,7.77e5,2.05e5,,39691,4567
uex,DRSC20786,5.72e5,1.71e5,,31296,3920
CG4238,DRSC00090,7.59e5,2.65e5,,38108,11989
CG4238,DRSC00644,1.17e5,1.35e5,,2506,3399
